Source: patent publication US20160145308A1 (SANFORD BURNHAM MEDICAL RESEARCH INSTITUTE, published 2016)
No constants are given. Whether binding was seen depends on the method and setting. Some entries that bind do so weakly or less than the wild type.

Biological target: T1, cyclic nucleotide-gated channel beta 3 (CNGB3), from membrane fraction of human endometriosis tissue (human) (UniProt Q9NQW8)
T1 sequence: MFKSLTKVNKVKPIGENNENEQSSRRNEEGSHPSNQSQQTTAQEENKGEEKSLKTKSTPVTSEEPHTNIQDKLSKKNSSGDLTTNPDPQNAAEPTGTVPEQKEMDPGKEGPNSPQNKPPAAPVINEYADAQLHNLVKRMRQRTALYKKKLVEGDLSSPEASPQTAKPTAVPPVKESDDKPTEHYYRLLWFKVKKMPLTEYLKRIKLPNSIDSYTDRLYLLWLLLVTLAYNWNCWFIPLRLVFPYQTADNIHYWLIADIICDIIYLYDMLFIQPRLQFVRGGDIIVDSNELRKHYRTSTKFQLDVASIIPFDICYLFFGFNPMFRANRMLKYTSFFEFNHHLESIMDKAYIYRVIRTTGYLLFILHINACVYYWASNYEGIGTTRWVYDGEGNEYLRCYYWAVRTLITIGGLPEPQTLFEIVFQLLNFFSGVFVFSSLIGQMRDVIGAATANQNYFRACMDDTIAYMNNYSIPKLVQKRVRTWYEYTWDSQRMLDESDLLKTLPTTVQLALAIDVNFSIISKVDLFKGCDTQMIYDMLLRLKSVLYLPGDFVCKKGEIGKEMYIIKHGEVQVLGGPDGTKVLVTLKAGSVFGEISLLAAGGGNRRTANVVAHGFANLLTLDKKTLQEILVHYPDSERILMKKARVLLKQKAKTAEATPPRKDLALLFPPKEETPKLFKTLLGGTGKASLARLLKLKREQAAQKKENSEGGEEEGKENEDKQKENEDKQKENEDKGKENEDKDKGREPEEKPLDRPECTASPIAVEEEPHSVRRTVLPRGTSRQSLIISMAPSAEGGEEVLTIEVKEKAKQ
Assay: affinity chromatography on z13-conjugated agarose beads, elution with free z13 peptide, silver stain, MALDI-TOF

binding: binds
Binder: CVRRADNRPG (N-terminal Cys coupled to sulfo-link agarose beads) [z13-conjugated agarose beads (cys-z13 peptide on sulfo-link agarose)]
